The text below walks through data of US20220177593A1.

Chains of the proteins cited; added tags and fusions are not shown. Lines headed by an entry give the natural chain unless they say otherwise; changes in a name come on top.
UniProt P30530: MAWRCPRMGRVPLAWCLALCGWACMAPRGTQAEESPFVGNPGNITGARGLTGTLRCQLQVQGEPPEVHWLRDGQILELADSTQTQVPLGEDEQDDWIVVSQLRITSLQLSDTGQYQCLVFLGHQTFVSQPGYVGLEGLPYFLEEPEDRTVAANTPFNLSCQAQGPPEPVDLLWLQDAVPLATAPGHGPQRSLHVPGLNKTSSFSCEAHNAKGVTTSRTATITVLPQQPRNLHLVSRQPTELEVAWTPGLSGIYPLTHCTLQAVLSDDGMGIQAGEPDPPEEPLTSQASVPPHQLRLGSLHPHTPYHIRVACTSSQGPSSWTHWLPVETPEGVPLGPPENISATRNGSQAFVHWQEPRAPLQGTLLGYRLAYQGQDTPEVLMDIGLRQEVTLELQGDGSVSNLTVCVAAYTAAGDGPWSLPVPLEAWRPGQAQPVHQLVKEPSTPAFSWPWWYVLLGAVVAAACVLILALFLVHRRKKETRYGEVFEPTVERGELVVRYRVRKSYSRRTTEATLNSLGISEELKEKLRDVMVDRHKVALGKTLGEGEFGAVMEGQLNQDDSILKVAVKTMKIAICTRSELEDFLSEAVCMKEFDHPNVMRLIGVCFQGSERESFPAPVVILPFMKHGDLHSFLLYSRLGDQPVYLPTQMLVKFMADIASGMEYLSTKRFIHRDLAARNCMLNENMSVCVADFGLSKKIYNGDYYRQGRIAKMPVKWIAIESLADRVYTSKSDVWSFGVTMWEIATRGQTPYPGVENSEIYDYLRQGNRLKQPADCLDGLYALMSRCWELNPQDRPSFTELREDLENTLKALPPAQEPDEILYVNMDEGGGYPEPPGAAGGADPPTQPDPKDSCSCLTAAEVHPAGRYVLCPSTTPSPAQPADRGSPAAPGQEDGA

No constants are given. Whether binding was seen depends on the method and setting. Some binding calls cover weakened binding; strength is not graded here.

The target in the assay is Domain 1 and Domain 2 of Axl-ECD (human) (UniProt P30530). Nature of the assay: ELISA on purified Axl domains coated on plates, Ab301 at 5 ug/mL. In general terms: ELISA stands for enzyme-linked immunosorbent assay.

B1: Ab301 (antibody, human IgG1, V domains shown)
VH: EVKLEASGGGLVQPGMSVKLSCTTSGFTFSDYWMEWVRQAPGKGLEWVAEIRNKVNNYATYYGKSVKGRFTISRDDSKSIVYLQMNSIRSEDTGIYYCNTLRLFAYWGQGTLVTVSA
VL: DIVMTQAPLSISVTPGESPSMSCRSSKSLLHRNGITYVYWYLQKPGKSPQLLIYRMSTLASGVPDRFSGSGSETDFTLKINKVEAEDVGIYYCGQLLENPYTFGAGTRLEIK
For B1, the binding entry is “binds”.
